Experimental data from publication PMC12778051.
Like-named read-outs stand apart in the source and are kept apart here. Results are given in words; binding and its absence hold for the method and conditions named. Binding seen in cells or lysates may run through a third protein. These calls come from enrichment with a bait or labelling near it, and not all partners need be listed. For part of these data: Sequences can lack the tags named with a protein.

T1: HA-LUBEL^1-872 (Drosophila melanogaster) (UniProt Q8IPJ3)
T1 sequence: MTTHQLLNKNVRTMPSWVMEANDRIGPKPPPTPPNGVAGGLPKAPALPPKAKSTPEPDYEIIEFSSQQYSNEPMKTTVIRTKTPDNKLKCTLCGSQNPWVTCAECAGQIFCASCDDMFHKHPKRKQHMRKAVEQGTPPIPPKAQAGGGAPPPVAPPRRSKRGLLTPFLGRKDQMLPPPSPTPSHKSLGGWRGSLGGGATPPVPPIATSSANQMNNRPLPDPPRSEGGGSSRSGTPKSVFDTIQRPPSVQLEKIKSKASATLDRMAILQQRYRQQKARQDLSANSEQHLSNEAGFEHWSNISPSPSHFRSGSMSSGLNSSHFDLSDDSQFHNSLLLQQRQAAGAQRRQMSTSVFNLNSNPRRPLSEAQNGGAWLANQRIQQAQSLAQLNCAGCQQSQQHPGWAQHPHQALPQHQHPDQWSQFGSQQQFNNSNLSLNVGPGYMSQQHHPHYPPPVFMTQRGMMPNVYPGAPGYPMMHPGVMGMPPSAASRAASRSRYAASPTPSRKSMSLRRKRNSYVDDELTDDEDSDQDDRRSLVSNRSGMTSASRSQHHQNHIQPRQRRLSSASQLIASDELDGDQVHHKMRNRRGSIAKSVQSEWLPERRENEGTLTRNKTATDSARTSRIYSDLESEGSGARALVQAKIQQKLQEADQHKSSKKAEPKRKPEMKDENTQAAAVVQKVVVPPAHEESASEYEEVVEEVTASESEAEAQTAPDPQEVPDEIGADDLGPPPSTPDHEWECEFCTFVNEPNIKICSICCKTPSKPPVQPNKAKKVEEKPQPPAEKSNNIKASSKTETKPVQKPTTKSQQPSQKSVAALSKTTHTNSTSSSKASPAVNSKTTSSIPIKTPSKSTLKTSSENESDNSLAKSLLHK

B1: Amphiphysin (Amph) (protein, UniProt Q7KLE5 1-602)
chain: MTENKGIMLAKSVQKHAGRAKEKILQNLGKVDRTADEIFDDHLNNFNRQQASANRLQKEFNNYIRCVRAAQAASKTLMDSVCEIYEPQWSGYDALQAQTGASESLWADFAHKLGDQVLIPLNTYTGQFPEMKKKVEKRNRKLIDYDGQRHSFQNLQANANKRKDDVKLTKGREQLEEARRTYEILNTELHDELPALYDSRILFLVTNLQTLFATEQVFHNETAKIYSELEAIVDKLATESQRGSNTLRKQTSNPIKTSSPVQSPVNKLNNANINSNYQNQITTNGGSSLANSPTSTSSSLQEPRFDSVSSTPEPRPESPAAALVSATPSSPVENGVTTKSLERPELSGLNASAKATTTTQTSPTEDKAVVSEAVKPSETEGAAVAASVTPAPPATPAQINGNNNEPSIVKEGGKQPKELPSTTSNAEAAAEAAANNGNSIEEHKQKKLGNDTTVTATETVTVTQHSVTSTDTDNIVTISDTNTDTDTKTSTGTSQKGRPVPVVNRHSVNNLNKNPFEDDDERIYEVPADANTADLPPGVLYRVKATYGYAKEDVDELSFEIGDLIRVIEYDDPEDQEEGWLMGQKEGTNEKGLFPANFTRPI

Columns and labels:
[1] = target: T1, HA-LUBEL^1-872 (Drosophila melanogaster); test: affinity purification with mass spectrometry; HA-LUBEL^1-872 or LacZ (control) expressed in 3IL body wall muscles; carcass fillet lysates (1% NP-40, 1 mM EDTA, 20 mM tris-HCl pH 7.4, 150 mM NaCl), anti-HA magnetic beads, on-bead trypsin digest, LC-MS/MS
[2] = target: T1, HA-LUBEL^1-872 (Drosophila melanogaster); test: as above; remark: listed apart in the source
[3] = target: miniTurbo-3xHA-LUBEL (Drosophila melanogaster) (UniProt Q8IPJ3); test: proximity labelling; miniTurbo-fused bait expressed in larval body wall muscles (Mef2-GAL4); larvae reared on 1 mM biotin for 2 days at 25°C; biotinylated peptides enriched on Tamavidin 2-REV beads and analysed by MS; fold change against mnTb alone

| Molecule | binding [1] | binding [2] | binding [3] |
| --- | --- | --- | --- |
| LUBEL (from UniProt Q8IPJ3 1-2892) (enzyme) | binds | – | – |
| B1 | – | binds | binds |
